# Measured values from PubChem BioAssay AID493027 (The Scripps Research Institute Molecular Screening Center, 2011).
# By UniProt entry, the sequences of proteins in these tests, tags left out. Where a name states a change or a piece, a line headed by the entry shows the natural chain unless it says otherwise.
# UniProt O60240: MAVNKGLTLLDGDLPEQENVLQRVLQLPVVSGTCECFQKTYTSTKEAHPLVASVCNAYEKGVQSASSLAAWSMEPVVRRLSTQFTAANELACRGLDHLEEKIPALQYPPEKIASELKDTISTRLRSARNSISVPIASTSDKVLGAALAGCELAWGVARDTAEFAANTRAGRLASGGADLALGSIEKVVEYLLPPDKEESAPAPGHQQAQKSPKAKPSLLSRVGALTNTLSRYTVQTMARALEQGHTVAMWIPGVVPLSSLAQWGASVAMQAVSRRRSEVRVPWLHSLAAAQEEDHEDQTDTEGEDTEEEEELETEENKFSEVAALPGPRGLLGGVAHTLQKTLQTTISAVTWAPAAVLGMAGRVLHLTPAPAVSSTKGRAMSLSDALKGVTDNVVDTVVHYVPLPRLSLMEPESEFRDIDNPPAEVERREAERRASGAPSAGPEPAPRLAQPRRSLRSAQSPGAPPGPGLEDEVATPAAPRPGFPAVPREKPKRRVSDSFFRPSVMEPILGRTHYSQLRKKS
# UniProt Q8WTS1: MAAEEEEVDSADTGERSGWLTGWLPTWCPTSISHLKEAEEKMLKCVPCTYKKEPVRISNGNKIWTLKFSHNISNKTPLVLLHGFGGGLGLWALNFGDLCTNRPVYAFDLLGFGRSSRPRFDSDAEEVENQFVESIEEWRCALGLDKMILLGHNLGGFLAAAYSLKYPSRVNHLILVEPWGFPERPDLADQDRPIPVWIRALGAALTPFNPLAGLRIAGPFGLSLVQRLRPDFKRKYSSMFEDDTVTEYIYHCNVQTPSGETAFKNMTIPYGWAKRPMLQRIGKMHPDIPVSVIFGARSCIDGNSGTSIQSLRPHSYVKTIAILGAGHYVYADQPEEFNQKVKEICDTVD
# “And” between values parts separate entries of the source, which are not always exact repeats. Identical values can stand only once. In all, about 2,000 compounds went through this assay and about 45 (2%) were called active.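 How the source made its calls: active means inhibition above the screen-wide mean inhibition plus 3 SD (cut at about 44% in these data); inactive means the rest.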 This is one part of the list.
# Target: Perilipin-1 (Homo sapiens) + 1-acylglycerol-3-phosphate O-acyltransferase ABHD5 (Homo sapiens) (UniProt O60240+Q8WTS1)
# Test: ABHD5-PLIN1 interaction inhibitors, pilot screen, cell lysate, split luciferase complementation, luminescence, NIH validation set (AID 493027);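 further: 0% = DMSO wells with the 100% control not disclosed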
# Conditions: split G. princeps luciferase complementation, 4 h; at 7.9 µM, active compounds read high
row,SMILES,inhibition
1,O=C(O)C1Cc2ccccc2CN1S(=O)(=O)c1ccccc1 (stereo not drawn),inactive: -0.86%
2,CC(=O)OCC(=O)[C@H]1CC[C@H]2[C@@H]3CC=C4C[C@@H](O)CC[C@]4(C)[C@H]3CC[C@]12C,inactive: -3.35%
3,CCOC(=O)C(=O)N1CCN(c2ccccc2OC)CC1,inactive: -5.23%
4,CC(C)(Oc1ccc(CCNC(=O)c2ccc(Cl)cc2)cc1)C(=O)O,inactive: -1.93%
5,OCCN1CCN(CCCN2c3ccccc3Sc3ccc(C(F)(F)F)cc32)CC1,inactive: 10.8%
6,O=C(NC1CCCCC1)N1CCc2[nH]c3ccccc3c2C1,inactive: -1.39%
7,O=C(Nc1ccc(C(=O)NC2CCCCC2)cc1)c1cccnc1,inactive: -8%
8,c1ccc(CC2=NCCN2)cc1,inactive: 3.29%
9,COc1ccc(C=NCC2COc3ccccc3O2)cc1OC (stereo not drawn),inactive: 0.36%
10,N#Cc1cc2c([nH]c1=O)CCCC2,inactive: -6.8%
11,COc1ccc(N2CCN(C(=S)NCc3ccccc3)CC2)cc1,inactive: 5.66%
12,Cn1c(=O)[nH]c(=O)c2c1ncn2CCN1CCOCC1,inactive: -2.02%
13,O=C(NCCO)c1ccc(Cl)c(Cl)c1,inactive: -11.6%
14,COc1ccccc1C1(CC(=O)N2CCCCC2)CCOC(C(C)C)C1 (stereo not drawn),inactive: -7.12%
15,O=C(CN1CCN(Cc2ccccc2)CC1)N1CCCc2c1c(=O)oc1ccc(O)cc21,inactive: 14.9%
16,O=Cc1ccc(OC(=O)c2cccnc2)cc1,inactive: -5.64%
17,Cc1ccc(N(CC2=NCCN2)c2cccc(O)c2)cc1,inactive: -4.49% and inactive: -5.95% and inactive: -7.49%
18,O=C1OC(c2ccc(O)cc2)(c2ccc(O)cc2)c2ccccc21,inactive: 22.7%
19,COCC1CCCN(Cc2cn[nH]c2-c2cc3ccccc3o2)C1 (stereo not drawn),inactive: -8.66%
20,CCOc1cc(C=O)ccc1OCCSc1ccc(C)cc1,inactive: -8.51%
21,CCOC(=O)c1cc2cc3ccccc3cc2[nH]1,inactive: 0.41%
22,CC(C)(CO)CNC(=O)CC1C(=O)NCCN1CC(c1ccccc1)c1ccccc1 (stereo not drawn),inactive: 1.59%
23,COc1ccc(CNC(=O)C2CCN(C(=O)[C@@H](CC(C)C)NC(=O)OC(C)(C)C)CC2)cc1,inactive: -8.53%
24,COc1ccc(CN(CCC(c2ccc(F)cc2)C2CCOC(C)(C)C2)C(=O)c2ccco2)cc1 (stereo not drawn),inactive: 23.5%
25,CCOc1ccc(C(=O)C(C)=O)c(OCC)c1,inactive: 0.4%

row,SMILES,inhibition
1,COc1ccc(CCCC(=O)O)c(C)c1,inactive: -5.11%
2,Clc1ccc(CCNc2ncnc3nc[nH]c23)cc1,inactive: -1.68%
3,CC(C)C(=O)Nc1cccnc1,inactive: 1.55%
4,C/C=C/Cn1c(SC)nc2c1c(=O)[nH]c(=O)n2C,inactive: -18.6%
5,c1ccc2c(c1)CCCC2C1=NCCN1 (stereo not drawn),inactive: 2.18%
6,CCCCN1C[C@H](O)[C@@H](O)[C@H](O)[C@H]1CO,inactive: -9.78%
7,COC(=O)c1ccccc1NC(=O)NCc1ccccc1,inactive: -7.32%
8,O=C(NCCc1ccccc1)C1CCN(C2CCN(Cc3ccco3)CC2)CC1,inactive: 6.8%
9,CCC(C)NCCOc1ccc(C(C)(C)c2ccccc2)cc1 (stereo not drawn),inactive: -11.5%
10,Nc1ccc(S(=O)(=O)NC(=O)c2ccccc2)cc1,inactive: -6.88%
11,C[N+](C)(C)CCOP(=O)(O)OP(=O)([O-])OC[C@H]1O[C@@H](n2ccc(N)nc2=O)[C@H](O)[C@@H]1O,inactive: 4.34%
12,C[C@]12CC[C@@H]3c4ccc(O)cc4[C@@H](O)C[C@H]3[C@@H]1CC[C@@H]2O,inactive: 1.76%
13,COc1ccc(/C=C2\CCn3c2nc2cc(C(=O)O)ccc2c3=O)cc1OC,inactive: -6.3%
14,O=C(NCCN1CCN(c2ccccc2)CC1)c1cccc(Br)c1,inactive: -3.13%
15,CCOc1ccc(CCn2c(-c3ccco3)nc3ccccc3c2=O)cc1OCC,inactive: 3.19%
16,CC(C)CN1CCN(Cc2ccc3ncccc3c2)CC1CCO (stereo not drawn),inactive: -14.4%
17,Cc1cccc(NC(=O)c2cc3ccccc3o2)c1,inactive: 5.84%
18,c1ccc(CN(CC2=NCCN2)c2ccccc2)cc1,inactive: -5.29% and inactive: -4.12%
19,O=c1oc2c(CN3CCN(CCO)CC3)c(O)ccc2cc1-c1ccccn1,inactive: 0.68%
20,CCOC(=O)c1cnc2ccc(C(=O)OC)cc2c1Nc1ccc2c(c1)OCCO2,inactive: 5.34%
21,CC(=O)Nc1ccccc1O,inactive: 2.03%
22,O=c1cc(Cn2ccnc2)c2cc3c(cc2o1)CCC3,inactive: 3.38%
23,S=C(c1ccc2c(c1)OCO2)N1CCCCC1,inactive: -0.57%
24,COc1cc2c3c(c1)C(C)CC(C)(C)N3C(=O)C2=O (stereo not drawn),inactive: 6.69%
25,COc1ccc(C(=O)NCc2cccnc2)cc1,inactive: -5.65%

row,SMILES,inhibition
1,COc1ccc(O)c(N)c1,inactive: 21.5%
2,Oc1[nH]c2ccccc2c1N=Nc1ccccc1,inactive: -0.17%
3,C=CCn1c(N2CCCCCC2)nc2c1c(=O)n(C)c(=O)n2C,inactive: -0.7%
4,COc1ccc(CN(C)CCc2ccccn2)cc1OC,inactive: -9.24%
5,S=C(NCc1ccccc1)NCc1cccc(CNC(=S)NCc2ccccc2)c1,inactive: 4.65%
6,CC(=O)OCC(=O)[C@@]1(OC(C)=O)[C@@H](C)C[C@H]2[C@@H]3C[C@H](F)C4=CC(=O)C=C[C@]4(C)[C@@]3(F)[C@@H](O)C[C@@]21C,inactive: -5.29%
7,CC(N=C(NC#N)Nc1ccncc1)C(C)(C)C (stereo not drawn),inactive: -8.82%
8,CC(C)C[C@H]1C(=O)N2CCC[C@H]2[C@]2(O)O[C@](NC(=O)[C@@H]3C=C4c5cccc6[nH]c(Br)c(c56)CC4N(C)C3)(C(C)C)C(=O)N12 (stereo partly drawn),inactive: 13.6%
9,O=C(NO)c1ccccc1O,inactive: -9.16%
10,COc1cc2nc(-c3ccccc3)nc(N3CCCC3)c2cc1OC,inactive: 5.54%
11,O=c1[nH]c(Cc2ccccc2)nc2c1oc1ccccc12,inactive: -3.99%
12,C#C[C@]1(O)CC[C@H]2[C@@H]3CCC4=CC(=O)CC[C@@H]4[C@H]3CC[C@@]21CC,inactive: -5.32%
13,CC(=O)OCC(=O)[C@H]1CC[C@H]2[C@@H]3CCC4=CC(=O)CC[C@]4(C)[C@H]3CC[C@]12C,inactive: -2.69%
14,CCOC(=O)Cn1c(C)cc(=O)c2ccccc21,inactive: 3.65%
15,CCc1cc2c(=O)c(-c3ccc(F)cc3)c(C)oc2cc1OCC(=O)O,inactive: 1.69%
16,O=C(O)CP(=O)(O)O,inactive: -2.55%
17,CNc1nc(N(C)C)nc(N(C)C)n1,inactive: -4.5%
18,COc1ccc(C(=O)/C=C/c2cc(C(=O)O)cc3c2OCOC3)c(O)c1,active: 67.3%
19,Cc1ccc(S(=O)(=O)Oc2ccccc2/C=N/N=C(N)N)cc1,inactive: 0.02%
20,COc1ccccc1C(=O)c1cc2ccc(O)cc2oc1=O,inactive: 4.61%
21,O=C(c1ccc(O)cc1)c1ccc(O)cc1O,inactive: 2.64%
22,COc1ccc2[nH]c(=O)c(CNC3CCCCC3)cc2c1,inactive: -4.19%
23,COc1cc2c(cc1OC)C(Cc1ccc(O)cc1)N(C)CC2 (stereo not drawn),inactive: 6.17%
24,CN(C)C(=O)Oc1ccc[n+](C)c1,inactive: -7.41%
25,CC(=O)CCc1c(C)c2cccc(C)c2[nH]c1=O,inactive: -7.07%

row,SMILES,inhibition
1,COc1ccccc1OCC(O)COC(N)=O (stereo not drawn),inactive: 1.99%
2,COC(=O)c1ccccc1NC(=O)c1ccc(COc2ccc3c(c2)CCC3)cc1,inactive: -13%
3,Cc1c2c(nc3c(C)cccc13)OC(C)C2 (stereo not drawn),inactive: 0.69%
4,CN1CCCC(OC(=O)c2ccc3c(c2)OCCO3)C1 (stereo not drawn),inactive: -4.03%
5,O=c1nc2cccc3c2=c(/c1=C(\O)c1ccccc1)c1ccccc1c3=O,inactive: 9.17%
6,CC(C)Cc1nc(NCCN2CCOCC2)c(C#N)c2c1COC(C)(C)C2,inactive: -9.04%
7,Fc1ccc(-c2cc(-c3ccccc3)nc(-n3cccn3)n2)cc1,inactive: 1.17%
8,O=C1NCC2=C1C(c1ccccc1)Nc1ccccc1N2 (stereo not drawn),inactive: 0.93%
9,Cc1ccc2c(c1)C(O)(C1COC(C)(C)CC1=O)C(=O)N2C (stereo not drawn),inactive: -9.79%
10,c1ccc(CNc2ncnc3nc[nH]c23)cc1,inactive: -7.6%
11,O=C1NC(=O)C(c2ccccc2)(c2ccccc2)N1,inactive: -10.3% and inactive: 0.44%
12,Cc1ccccc1-c1nn(-c2ccc(F)cc2F)cc1CNCCN(C)C,inactive: -6.83%
13,COc1ccc(C2C3=C(OC(C)=O)c4ccccc4C3=Nc3c2c(=O)n(C)c(=O)n3C)cc1 (stereo not drawn),inactive: -2.98%
14,COC1CCN(Cc2cn(Cc3ccccc3)nc2-c2cc3ccccc3o2)CC1,inactive: -8.86%
15,Cc1cccc(-c2ncc(CN3CCN(CC(C)C)C(CCO)C3)cn2)c1 (stereo not drawn),inactive: -1.43%
16,COc1ccc(Cc2noc(CN(C)CC3(N4CCOCC4)CCCCC3)n2)cc1OC,inactive: -1.95%
17,CN(C)CCCN1c2ccccc2Sc2ccc(Cl)cc21,inactive: 7.85% and inactive: 4.58%
18,COc1ccc(C(=O)Nc2cccc3cccnc23)cc1OC,inactive: 5.1%
19,CC(=O)Oc1ccc2occ(/C=N/c3cc(=O)[nH]c(=S)[nH]3)c(=O)c2c1,inactive: -1.72%
20,O=c1ccc2ccccc2o1,inactive: -11.4%
21,CC1(C)CC(CNCCC(c2ccc(F)cc2)c2ccco2)CCO1 (stereo not drawn),inactive: -10.1%
22,O=C(O)C[C@@H](O)C(=O)O,inactive: -3.71%
23,O=C1C(=O)N2C(=C1C(=O)N1CCCCCC1)c1ccccc1CC21CCCC1,inactive: -6.88%
